The list shows a part of the results.

Protein sequences, listed by entry. Tags and fused reporters are not part of them. Lines headed by an entry give the natural chain unless they say otherwise; changes in a name come on top.
UniProt Q16719: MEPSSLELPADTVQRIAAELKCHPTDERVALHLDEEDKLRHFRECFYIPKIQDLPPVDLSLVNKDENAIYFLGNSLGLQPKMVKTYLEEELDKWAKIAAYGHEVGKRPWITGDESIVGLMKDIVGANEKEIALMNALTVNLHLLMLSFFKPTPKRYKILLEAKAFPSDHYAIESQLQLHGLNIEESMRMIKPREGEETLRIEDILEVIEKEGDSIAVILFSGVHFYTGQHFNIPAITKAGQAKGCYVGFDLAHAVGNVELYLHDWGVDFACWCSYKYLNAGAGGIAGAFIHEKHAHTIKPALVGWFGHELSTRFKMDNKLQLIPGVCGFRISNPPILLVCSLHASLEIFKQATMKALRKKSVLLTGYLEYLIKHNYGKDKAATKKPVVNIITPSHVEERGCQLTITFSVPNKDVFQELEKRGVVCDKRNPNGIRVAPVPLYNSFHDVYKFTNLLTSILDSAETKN
UniProt Q86UP2: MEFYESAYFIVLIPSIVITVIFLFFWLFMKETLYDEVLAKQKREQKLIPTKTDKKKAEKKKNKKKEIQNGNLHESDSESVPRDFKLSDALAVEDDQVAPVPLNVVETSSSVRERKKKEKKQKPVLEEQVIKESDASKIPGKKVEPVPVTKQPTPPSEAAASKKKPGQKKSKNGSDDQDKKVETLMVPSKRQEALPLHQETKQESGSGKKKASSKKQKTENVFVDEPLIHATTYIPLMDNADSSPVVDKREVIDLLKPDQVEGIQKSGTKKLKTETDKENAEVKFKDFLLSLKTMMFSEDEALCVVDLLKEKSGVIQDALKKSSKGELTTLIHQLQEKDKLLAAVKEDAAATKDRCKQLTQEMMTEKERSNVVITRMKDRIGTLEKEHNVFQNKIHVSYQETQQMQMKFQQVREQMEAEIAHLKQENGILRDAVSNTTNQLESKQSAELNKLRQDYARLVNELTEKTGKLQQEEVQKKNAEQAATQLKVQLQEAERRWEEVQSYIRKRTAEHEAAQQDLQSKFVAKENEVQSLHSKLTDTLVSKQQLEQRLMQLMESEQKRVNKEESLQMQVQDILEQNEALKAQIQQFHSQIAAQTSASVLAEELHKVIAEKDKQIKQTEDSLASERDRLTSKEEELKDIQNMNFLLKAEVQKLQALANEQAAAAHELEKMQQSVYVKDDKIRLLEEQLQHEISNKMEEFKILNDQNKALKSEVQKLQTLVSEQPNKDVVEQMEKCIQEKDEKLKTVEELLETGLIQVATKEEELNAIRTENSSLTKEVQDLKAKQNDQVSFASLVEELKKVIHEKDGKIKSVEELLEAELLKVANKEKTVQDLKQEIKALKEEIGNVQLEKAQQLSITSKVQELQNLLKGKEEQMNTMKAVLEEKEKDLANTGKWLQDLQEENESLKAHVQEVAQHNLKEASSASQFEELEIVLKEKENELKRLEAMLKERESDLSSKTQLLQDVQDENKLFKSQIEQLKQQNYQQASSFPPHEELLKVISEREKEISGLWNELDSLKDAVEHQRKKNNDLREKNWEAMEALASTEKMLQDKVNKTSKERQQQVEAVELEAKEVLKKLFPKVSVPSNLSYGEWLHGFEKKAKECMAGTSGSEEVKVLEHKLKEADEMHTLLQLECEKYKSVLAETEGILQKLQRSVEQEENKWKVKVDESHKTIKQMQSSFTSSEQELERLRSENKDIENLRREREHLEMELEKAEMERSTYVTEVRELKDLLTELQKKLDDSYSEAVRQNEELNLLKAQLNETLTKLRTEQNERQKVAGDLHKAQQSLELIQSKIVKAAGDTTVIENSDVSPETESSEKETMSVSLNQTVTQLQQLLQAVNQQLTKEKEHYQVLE
UniProt Q9BQK8: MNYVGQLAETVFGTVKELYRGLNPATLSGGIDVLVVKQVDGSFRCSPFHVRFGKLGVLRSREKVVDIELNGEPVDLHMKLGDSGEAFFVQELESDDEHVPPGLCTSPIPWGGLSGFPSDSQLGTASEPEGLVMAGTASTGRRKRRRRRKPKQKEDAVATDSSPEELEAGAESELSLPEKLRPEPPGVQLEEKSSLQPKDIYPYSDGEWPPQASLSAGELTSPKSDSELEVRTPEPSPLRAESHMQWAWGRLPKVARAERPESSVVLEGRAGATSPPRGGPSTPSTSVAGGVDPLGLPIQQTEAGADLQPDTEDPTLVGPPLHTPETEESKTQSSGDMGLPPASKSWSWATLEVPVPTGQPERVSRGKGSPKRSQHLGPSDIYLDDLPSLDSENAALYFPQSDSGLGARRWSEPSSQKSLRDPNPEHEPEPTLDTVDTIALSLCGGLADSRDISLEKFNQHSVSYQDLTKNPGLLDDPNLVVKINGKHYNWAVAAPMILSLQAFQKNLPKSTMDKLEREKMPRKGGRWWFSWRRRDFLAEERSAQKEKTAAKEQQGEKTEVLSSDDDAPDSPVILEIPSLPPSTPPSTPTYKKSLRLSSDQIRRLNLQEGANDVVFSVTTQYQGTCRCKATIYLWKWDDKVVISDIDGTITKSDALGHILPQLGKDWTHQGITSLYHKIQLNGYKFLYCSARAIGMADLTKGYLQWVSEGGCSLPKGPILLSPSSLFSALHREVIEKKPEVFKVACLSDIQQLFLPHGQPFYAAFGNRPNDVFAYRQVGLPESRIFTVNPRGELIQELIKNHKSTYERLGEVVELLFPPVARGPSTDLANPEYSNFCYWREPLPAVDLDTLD
UniProt Q14847: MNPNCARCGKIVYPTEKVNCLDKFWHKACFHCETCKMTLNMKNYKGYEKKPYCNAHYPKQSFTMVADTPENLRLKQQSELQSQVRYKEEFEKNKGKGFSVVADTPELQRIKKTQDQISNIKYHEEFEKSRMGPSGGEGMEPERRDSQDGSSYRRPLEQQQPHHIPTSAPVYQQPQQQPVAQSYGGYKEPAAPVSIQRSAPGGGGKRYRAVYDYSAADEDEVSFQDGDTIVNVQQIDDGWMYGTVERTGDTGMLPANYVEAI
UniProt Q12907: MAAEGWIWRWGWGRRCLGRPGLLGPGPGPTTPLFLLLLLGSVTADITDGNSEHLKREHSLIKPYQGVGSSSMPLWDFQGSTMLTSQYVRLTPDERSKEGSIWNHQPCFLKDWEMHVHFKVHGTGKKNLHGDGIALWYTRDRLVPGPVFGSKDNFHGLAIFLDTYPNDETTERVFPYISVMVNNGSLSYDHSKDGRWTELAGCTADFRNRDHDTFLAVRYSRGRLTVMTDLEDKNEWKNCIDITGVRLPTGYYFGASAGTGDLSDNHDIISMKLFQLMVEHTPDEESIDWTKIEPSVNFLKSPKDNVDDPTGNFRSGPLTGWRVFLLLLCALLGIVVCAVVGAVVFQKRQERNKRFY
UniProt Q4G0J3: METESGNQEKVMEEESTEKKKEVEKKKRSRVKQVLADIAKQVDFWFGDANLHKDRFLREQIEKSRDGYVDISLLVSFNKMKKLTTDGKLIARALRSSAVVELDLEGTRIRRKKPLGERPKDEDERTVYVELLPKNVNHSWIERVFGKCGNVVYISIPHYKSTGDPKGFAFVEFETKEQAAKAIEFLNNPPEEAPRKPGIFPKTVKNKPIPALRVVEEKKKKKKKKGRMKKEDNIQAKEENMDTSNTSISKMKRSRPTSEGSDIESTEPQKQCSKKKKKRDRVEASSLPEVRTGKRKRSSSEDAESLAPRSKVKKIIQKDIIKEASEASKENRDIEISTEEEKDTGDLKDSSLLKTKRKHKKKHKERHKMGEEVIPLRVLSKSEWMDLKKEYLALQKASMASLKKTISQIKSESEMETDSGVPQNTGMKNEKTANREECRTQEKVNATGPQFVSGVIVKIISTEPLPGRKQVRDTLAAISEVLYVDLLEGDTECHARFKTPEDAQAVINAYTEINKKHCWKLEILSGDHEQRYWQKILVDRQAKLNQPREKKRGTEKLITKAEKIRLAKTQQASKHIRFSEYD
UniProt Q6P1M3: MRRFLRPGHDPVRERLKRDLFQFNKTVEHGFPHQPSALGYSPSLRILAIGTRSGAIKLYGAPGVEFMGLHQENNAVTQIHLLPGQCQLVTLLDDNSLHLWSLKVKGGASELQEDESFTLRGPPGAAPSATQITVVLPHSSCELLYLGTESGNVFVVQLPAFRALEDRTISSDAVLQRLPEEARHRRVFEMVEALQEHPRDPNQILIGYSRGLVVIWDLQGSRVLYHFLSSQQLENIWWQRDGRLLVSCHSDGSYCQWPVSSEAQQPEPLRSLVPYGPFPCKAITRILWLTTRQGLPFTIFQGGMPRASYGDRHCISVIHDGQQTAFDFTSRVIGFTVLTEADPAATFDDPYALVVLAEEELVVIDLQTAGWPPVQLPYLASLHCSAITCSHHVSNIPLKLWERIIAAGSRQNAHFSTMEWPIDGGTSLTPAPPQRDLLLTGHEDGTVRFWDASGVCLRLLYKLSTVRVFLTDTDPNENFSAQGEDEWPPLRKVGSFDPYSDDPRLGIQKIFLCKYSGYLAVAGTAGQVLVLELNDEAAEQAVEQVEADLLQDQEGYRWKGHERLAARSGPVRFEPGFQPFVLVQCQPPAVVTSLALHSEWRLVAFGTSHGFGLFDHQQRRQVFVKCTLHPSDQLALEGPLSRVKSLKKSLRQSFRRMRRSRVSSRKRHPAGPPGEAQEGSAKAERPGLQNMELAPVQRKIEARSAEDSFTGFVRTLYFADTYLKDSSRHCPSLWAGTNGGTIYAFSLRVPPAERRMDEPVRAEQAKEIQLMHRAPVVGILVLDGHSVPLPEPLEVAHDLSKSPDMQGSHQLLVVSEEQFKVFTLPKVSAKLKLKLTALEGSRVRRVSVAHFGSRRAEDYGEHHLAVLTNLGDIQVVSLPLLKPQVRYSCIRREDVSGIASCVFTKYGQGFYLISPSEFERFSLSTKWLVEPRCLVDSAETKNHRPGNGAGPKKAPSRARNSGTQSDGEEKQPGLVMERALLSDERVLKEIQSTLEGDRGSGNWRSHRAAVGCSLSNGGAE
UniProt O60294: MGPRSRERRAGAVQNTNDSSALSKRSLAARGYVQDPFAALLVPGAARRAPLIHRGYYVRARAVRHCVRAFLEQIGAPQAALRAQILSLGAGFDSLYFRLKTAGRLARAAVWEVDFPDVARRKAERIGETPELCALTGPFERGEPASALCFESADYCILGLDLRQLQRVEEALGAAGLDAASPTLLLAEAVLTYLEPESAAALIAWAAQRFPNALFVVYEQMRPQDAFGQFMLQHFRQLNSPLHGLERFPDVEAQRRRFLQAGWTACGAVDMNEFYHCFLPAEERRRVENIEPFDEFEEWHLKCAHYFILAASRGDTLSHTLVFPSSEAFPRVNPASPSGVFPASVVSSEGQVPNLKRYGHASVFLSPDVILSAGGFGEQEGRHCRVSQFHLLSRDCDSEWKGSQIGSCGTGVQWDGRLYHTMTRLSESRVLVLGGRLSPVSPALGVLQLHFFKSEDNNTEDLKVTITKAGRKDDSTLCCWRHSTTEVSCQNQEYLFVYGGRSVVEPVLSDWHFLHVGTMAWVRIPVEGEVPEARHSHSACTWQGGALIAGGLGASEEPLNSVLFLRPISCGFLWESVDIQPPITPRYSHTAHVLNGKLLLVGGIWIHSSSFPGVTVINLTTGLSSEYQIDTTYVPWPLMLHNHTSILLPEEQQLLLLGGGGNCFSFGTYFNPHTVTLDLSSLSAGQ
UniProt Q9NUP9: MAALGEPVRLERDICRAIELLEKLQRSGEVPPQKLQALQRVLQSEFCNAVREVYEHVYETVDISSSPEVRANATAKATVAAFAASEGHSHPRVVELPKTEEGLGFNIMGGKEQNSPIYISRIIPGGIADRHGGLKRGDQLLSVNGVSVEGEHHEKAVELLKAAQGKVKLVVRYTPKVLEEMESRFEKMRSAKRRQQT
UniProt Q9NT99: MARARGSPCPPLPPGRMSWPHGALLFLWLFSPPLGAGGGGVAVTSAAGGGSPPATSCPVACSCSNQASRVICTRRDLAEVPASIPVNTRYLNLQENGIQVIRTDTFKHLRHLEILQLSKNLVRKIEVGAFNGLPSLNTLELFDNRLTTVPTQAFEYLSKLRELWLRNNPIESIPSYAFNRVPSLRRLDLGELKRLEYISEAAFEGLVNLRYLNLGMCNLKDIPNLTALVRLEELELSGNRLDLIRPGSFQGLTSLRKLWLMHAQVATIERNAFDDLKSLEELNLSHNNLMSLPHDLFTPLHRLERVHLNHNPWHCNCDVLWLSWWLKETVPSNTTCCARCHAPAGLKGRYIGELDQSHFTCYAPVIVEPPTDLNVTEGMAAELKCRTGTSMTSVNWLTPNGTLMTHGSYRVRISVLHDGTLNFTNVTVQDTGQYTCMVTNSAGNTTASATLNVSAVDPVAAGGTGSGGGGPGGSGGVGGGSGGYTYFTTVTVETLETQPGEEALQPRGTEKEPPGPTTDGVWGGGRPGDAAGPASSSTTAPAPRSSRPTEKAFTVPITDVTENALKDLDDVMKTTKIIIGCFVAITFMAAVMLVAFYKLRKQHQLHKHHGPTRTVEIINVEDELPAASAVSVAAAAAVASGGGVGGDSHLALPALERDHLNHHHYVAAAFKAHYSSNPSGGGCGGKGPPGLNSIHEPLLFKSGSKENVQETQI

Compound in one assay: COC(=O)N[C@@H](C)CNc1nccc(-c2cn(C(C)C)nc2-c2cc(Cl)cc(NS(C)(=O)=O)c2F)n1 [encorafenib]
The assay can be described thus: log2 fold change, soluble protein after heating vs DMSO (PISA); higher = thermal stabilisation; K562 cells, 10 uM, 30 min; active = over 0.2 and 3.5 SD of the protein, either way, in both replicates (recomputed). Put shortly: (§1)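 For each measurement, 10 μM compound was applied for 30 min to K562 cells at 2×10^6 cells/mL. Aliquots were heated for 3 min across 48°C-58°C, pooled, and extracted in PBS with 0.5% NP-40 at 4°C; the supernatant after 21,000xg for 90 min was soluble protein. This was quantified by TMTpro 16plex LC-MS/MS with channel sums equalised, and thermal stability was reported relative to control samples from duplicates, on a log2 fold-change scale.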
Take KYNU (UniProt Q16719): the log2 fold change was inactive: -0.022. Regarding KTN1 (UniProt Q86UP2), the log2 fold change was inactive: 0.137. Still for that read-out and setting: to LPIN3 isoform 2 (UniProt Q9BQK8) belongs inactive: 0.051; to LDHA isoform 3 (UniProt P00338), inactive: -0.02; to KYAT3 (UniProt Q6YP21), inactive: 0.012.

As for LASP1 (UniProt Q14847), the log2 fold change was inactive: -0.018.

As to LCLAT1 (UniProt Q6UWP7), the log2 fold change was inactive: 0.003. Turning to LAMTOR4 (UniProt Q0VGL1), the log2 fold change is inactive: -0.034. Turning to LLPH (UniProt Q9BRT6), the log2 fold change was inactive: 0.256. As for LMAN2 (UniProt Q12907), the log2 fold change is inactive: 0.001. As to LPIN2 (UniProt Q92539), the log2 fold change is inactive: -0.14.

As for LARP7 isoform 3 (UniProt Q4G0J3), the log2 fold change was inactive: 0.034. Take LLGL2 (UniProt Q6P1M3): the log2 fold change is inactive: 0.02.

For the target LARS (UniProt Q9P2J5), the log2 fold change was inactive: 0.17. As to LAMTOR5 (UniProt O43504), the log2 fold change was inactive: -0.067. On the same count and under the same terms, the figure for LRRC59 (UniProt Q96AG4) is inactive: -0.029. For LGALS1 (UniProt P09382), the log2 fold change is inactive: 0.002. Regarding LIMK2 isoform 3 (UniProt P53671), the log2 fold change was inactive: -0.08. The same measure, in the same setting: to LIN7A (UniProt O14910) belongs inactive: -0.088; to LRRC20 (UniProt Q8TCA0), inactive: 0.061.

As to LRRC57 (UniProt Q8N9N7), the log2 fold change is inactive: -0.016. On the same count and under the same terms, the figure for LANCL2 (UniProt Q9NS86) is inactive: -0.004; for LMNA (UniProt P02545) it is inactive: -0.019; for LMNB2 (UniProt Q03252) it is inactive: -0.009. With LRRC47 (UniProt Q8N1G4), the log2 fold change is inactive: 0.014. Consider L1RE1 (UniProt Q9UN81), for which the log2 fold change was inactive: 0.105. As for LRPAP1 (UniProt P30533), the log2 fold change is inactive: -0.015. For the target LRIG2 (UniProt O94898), the log2 fold change was inactive: 0.051.

Consider LCMT2 (UniProt O60294), for which the log2 fold change was inactive: -0.153. Same read-out and setting: the figure for LIN7C (UniProt Q9NUP9) is inactive: -0.036; for LETMD1 isoform 7 (UniProt Q6P1Q0) it is inactive: 0.06; for LRRC4B (UniProt Q9NT99) it is inactive: 0.007.

Compound in a further assay: COC(=O)[C@H](CCSC)NC(=O)C1=C(C=C(C=C1)NC[C@H](CS)N)C2=CC=CC=C2
The assay is described as above. The essentials:
as §1
Take KYNU (UniProt Q16719): the log2 fold change is inactive: 0.035. Consider KTN1 (UniProt Q86UP2), for which the log2 fold change is inactive: -0.053. With LPIN3 isoform 2 (UniProt Q9BQK8), the log2 fold change was inactive: -0.012. With LDHA isoform 3 (UniProt P00338), the log2 fold change was inactive: 0.007. Consider KYAT3 (UniProt Q6YP21), for which the log2 fold change was inactive: 0.036. As to LASP1 (UniProt Q14847), the log2 fold change was inactive: 0.023.

With LCLAT1 (UniProt Q6UWP7), the log2 fold change was inactive: 0.001. In the case of LAMTOR4 (UniProt Q0VGL1), the log2 fold change is inactive: 0.022.

With LLPH (UniProt Q9BRT6), the log2 fold change is inactive: -0.001. As for LMAN2 (UniProt Q12907), the log2 fold change was inactive: -0.011. For the target LPIN2 (UniProt Q92539), the log2 fold change was inactive: -0.031.

For LARP7 isoform 3 (UniProt Q4G0J3), the log2 fold change was inactive: -0.019.

LARS (UniProt Q9P2J5): the log2 fold change was inactive: -0.018.

As to LAMTOR5 (UniProt O43504), the log2 fold change was inactive: 0.224. On to LRRC59 (UniProt Q96AG4), for which the log2 fold change was inactive: -0.001. Still for that read-out and setting: the figure for LGALS1 (UniProt P09382) is inactive: -0.035. LIMK2 isoform 3 (UniProt P53671): the log2 fold change is inactive: 0.113.

For the target LIN7A (UniProt O14910), the log2 fold change is inactive: 0.008. As to LRRC20 (UniProt Q8TCA0), the log2 fold change was inactive: -0.023. Still for that read-out and setting: to LRRC57 (UniProt Q8N9N7) belongs inactive: 0; to LANCL2 (UniProt Q9NS86), inactive: 0; to LMNA (UniProt P02545), inactive: 0.042.

As for LMNB2 (UniProt Q03252), the log2 fold change is inactive: 0.049. LRRC47 (UniProt Q8N1G4): the log2 fold change is inactive: -0.037.

Consider L1RE1 (UniProt Q9UN81), for which the log2 fold change is inactive: -0.052. On to LRPAP1 (UniProt P30533), for which the log2 fold change was inactive: 0.027. LRIG2 (UniProt O94898): the log2 fold change is inactive: -0.043. The same measure, in the same setting: the figure for LCMT2 (UniProt O60294) is inactive: -0.376. Same read-out and setting: the figure for LIN7C (UniProt Q9NUP9) is inactive: 0.028; for LRRC4B (UniProt Q9NT99) it is inactive: -0.028.

Values taken from the supplement of paper PMC10849652.
